# Results reported in article PMC12040169 (PLOS Biology, 2025).
# This is one part of the list.
# Tested on: T1, CTL2-GFP (C. trachomatis L2/434/Bu, GFP-expressing)
# T1 construct: L2/434/Bu, GFP-expressing
# Design: species or system HeLa; Intracellular C. trachomatis growth in HeLa cells, bulk GFP fluorescence relative to DMSO
# Conditions: bulk GFP, single well; 28.5 h, 10 µM; inhibitor
row,Compound,% of control remaining [%]
1,CN(CCN1CCCCC1)C(=O)Cn1ccnc1-c1ccccc1 [CBK281900],150.033
2,COc1ccc(NC(=O)N(CCO)C2CCCCC2)c(OC)c1 [CBK008768],108.093
3,COC(=O)c1ccc(N2CCN(C)CC2)c(NC(=O)c2cc(Br)ccc2OC)c1 [CBK269221],89.6432
4,CC(C)[C@@H](CO)n1c(=O)[nH]c2ncc(-c3cccc4ccccc34)nc21 [CBK064961],103.056
5,COc1ccc2c(c1)cc(C)c1n[nH]c(=O)n12 [CBK283766],166.771
6,C=C(C)Cn1c(SCC(C)C)nnc1-c1ccccc1C(=O)O [CBK200093],121.073
7,C/N=C1/c2cn3ccccc3c2CCN1C [CBK022058],107.001
8,O=C1CCCN1CCOc1nccnc1-c1ccccc1Cl [CBK106999],94.3574
9,Cc1ccc(NC(=O)c2nc3ccccc3[nH]2)c(C)n1 [CBK200296],157.15
10,COCCN(C(=S)Nc1ccc(C)cc1Cl)C(C)c1cccnc1 (stereo not drawn) [CBK294472],150.905
11,O=C(CN1CCCCC1)N1CCCC1c1nc2ccccc2[nH]1 (stereo not drawn) [CBK283935],123.021
12,CCOC(=O)CNC(=O)Nc1cc2ccccc2c(Br)n1 [CBK063279],110.423
13,Cc1cc(COc2nccnc2OC2CCN(CCN3CCOCC3)CC2)no1 [CBK082961T],112.223
14,CC(C)c1ccc(S(=O)(=O)Nc2ccc(Br)c(F)c2)cc1 [CBK044556],83.156
15,CCOC(=O)c1ccc(NC(=O)c2ccccc2-c2nc(-c3ccccc3Cl)no2)cc1 [CBK268919],112.332
16,O=C(CCC1CCCO1)NC(Cc1ccsc1)c1cccnc1 (stereo not drawn) [CBK285159],134.314
17,CCCc1cn(C2CCN(c3cc(-n4cc(C)cn4)ncn3)CC2)nn1 [CBK307127],114.429
18,CC(NC(=O)C(C)(C)C)c1nc(-c2cccnc2)n[nH]1 (stereo not drawn) [CBK104007],114.516
19,Cc1cccc(CN(CCN)C(=O)Nc2ccc(C(C)(C)C)cc2)n1 [CBK046230C],57.9837
20,COc1cccc(C(=O)Nc2ccc(Br)cc2C(=O)O)c1 [CBK022487],101.094
21,CCCNC(=O)CN(C)Cc1nc(-c2cccc(C(F)(F)F)c2)no1 [CBK305672],98.9983
22,CC(C)(Oc1ccc(Cl)cc1)C(=O)Nc1nnc[nH]1 [CBK288220],123.887
23,Cn1c(N2CCC(C(=O)NCC3CC3)CC2)nc2ccccc21 [CBK283957],133.557
24,CC(=O)Nc1ccc(C#CC2(NC(=O)C3CC3)CCCCC2)cn1 [CBK284676],103.335
25,CC(=O)Nc1cc(NC(C)=O)c(O)c(C(=O)O)c1 [CBK009871],131.059
26,CC(C)n1cc(C(=O)N2CCCCC2c2nc3ccccc3[nH]2)cn1 (stereo not drawn) [CBK283679],100.94

# Quoted at random: 3 entries already listed
row,Compound,% of control remaining [%]
23,Cn1c(N2CCC(C(=O)NCC3CC3)CC2)nc2ccccc21 [CBK283957],133.557
26,CC(C)n1cc(C(=O)N2CCCCC2c2nc3ccccc3[nH]2)cn1 (stereo not drawn) [CBK283679],100.94
13,Cc1cc(COc2nccnc2OC2CCN(CCN3CCOCC3)CC2)no1 [CBK082961T],112.223

# Additional results follow:

row,Compound,% of control remaining [%]
1,CCOC(=O)c1ccccc1NS(C)(=O)=O [CBK262271],76.9777
2,CNc1nc(NCCc2cnc(=O)n(C)c2O)cc(C2CCOC2)n1 (stereo not drawn) [CBK307156],124.128
3,Cc1ccc(C(C)(C)C(=O)N2CCC(CC(=O)N(C)C)CC2)cc1 [CBK281973],119.097
4,COc1ccc(CCNC(=O)c2ccccc2NS(=O)(=O)c2cc(C(=O)O)ccc2OC)cc1 [CBK297506],148.823
5,CC(C)c1ccc(N2C(=O)N[C@@H]3CCN(S(=O)(=O)c4ccccc4)[C@@H]3C2=O)cc1 [CBK289289],98.5456
6,Cc1nn(C)cc1C(=O)NC(Cc1ccsc1)c1cccnc1 (stereo not drawn) [CBK285392],122.927
7,COC(=O)c1c(NC(=O)c2c(C)c(-c3ccc(Cl)cc3Cl)nc3ccccc23)sc2c1CCC(C)C2 (stereo not drawn) [CBK262644],100
8,COc1nc(N(C)C)nc(N2CC(=O)N(c3ccccc3)C2=N)n1 [CBK269079],191.108
9,O=C(C1CCCCC1)N1CC(n2nc(-c3ccccc3)ccc2=O)C1 [CBK284616],152.396
10,CC(=O)N1CCC[C@H]2NC(=O)CNC(=O)C3(C/C=C/C[C@H]21)CCNCC3 [CBK292173],115.388
11,CSc1nc(O)c(C(c2ccc(C(=O)O)cc2)c2c(O)nc(SC)nc2O)c(O)n1 [CBK265288],89.7365
12,COC(=O)c1cn(Cc2ccccc2)nn1 [CBK073903],136.776
13,O=C(NCC1CCCO1)[C@H]1CCCC[C@H]1C(=O)O (stereo partly drawn) [CBK287104],112.883
14,COc1cc(C)c(S(=O)(=O)n2c(C)nc3ccccc32)cc1C [CBK265464],104.472
15,O=C(O)CCCNS(=O)(=O)c1ccc([N+](=O)[O-])cc1 [CBK261317],100
16,O=C(Cn1ccccc1=O)Nc1ccc(OCC(F)(F)F)nc1 [CBK304556],152.264
17,NC[C@H]1CC[C@H](C(=O)NCC2CCCN(Cc3ccccc3)C2)CC1 (stereo partly drawn) [CBK282764],125.421
18,O=C(NCCc1ccccc1)c1nc(-c2ccncc2)cs1 [CBK288604],119.392
19,CCc1nnc(NS(=O)(=O)c2ccc(Nc3ccc4nonc4c3[N+](=O)[O-])cc2)s1 [CBK261445],78.072
20,Cc1ccc(C)c2[nH]c(=O)c(CN(Cc3cccnc3)C(=O)NC3CCCCC3)cc12 [CBK068091],103.974
21,COc1ccc(CSc2nc(N)c3c4c(sc3n2)CCCC4)cc1 [CBK131876],101.163
22,O=C(O)c1ccc(NC2CCS(=O)(=O)C2)cc1 (stereo not drawn) [CBK287168],153.935
23,CC1=NNC(=O)C1CCC(=O)N/N=C/C(Br)=C/c1ccccc1 (stereo not drawn) [CBK262929],100.362
24,Cc1ccnc2nc(C(=O)OC(C)C(=O)c3ccc4c(c3)CCC4)nn12 (stereo not drawn) [CBK304528],134.399
25,O=C1NN=C(Cc2ccccc2)C1c1ccccc1 (stereo not drawn) [CBK067757],107.739
